About 4,300 (3.1%) of roughly 140,000 compounds were called active. Inconclusive means that the source gave no clear call. Such entries were picked first, then a sample of the others.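 The calls were made as follows: active = readout at or below -70, meaning at least 70% loss of cells showing the perinucleolar compartment, a nuclear body marking cancer cells; inconclusive = readout between -30 and a set limit; inactive = the rest.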
assay: High Content Assay for Compounds that inhibit the Assembly of the Perinucleolar Compartment; conditions: PC3M PTB-GFP, PNC prevalence imaging, 16 h; at 10 µM; stronger effect = lower value;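 also: plate controls were DMSO wells for no effect and camptothecin positive control wells for full effect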
Outline: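 Compounds are pinned in duplicate onto adhered PC3M cells stably expressing GFP-tagged PTB and incubated 16 h at 37 C. Cells are then fixed, nuclei stained with Hoechst, and PNC-positive cells counted.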

SMILES	activity change (PNC), negative = inhibition
Cc1cc(C)c2c(=O)n(CC(=O)NCCCN3CCOCC3)sc2n1	inconclusive: -62.7%
CCCCNC(=O)c1ccccc1C(=O)NCCCC	inconclusive: -75.6%
CCOC(=O)c1c(C2COc3ccccc3O2)csc1N (centres undefined)	inconclusive: -62.9%
O=C(CN1C(=O)NC2(CCCCC2)C1=O)NC1CCCc2ccccc21 (centres undefined)	inactive: 14.9%
CCCOc1ccc(CC(CC(=O)O)(C(=O)O)C(=O)O)cc1	inconclusive: -55.8%
NS(=O)(=O)c1ccc(N2N=C(c3ccccc3)CC2c2ccccc2)cc1 (centres undefined)	inconclusive: -50.9%
O=C(NC1CCCCC1)C1Cc2ccccc2CN1S(=O)(=O)c1ccc(F)cc1 (centres undefined)	active: -100%
CC(=O)c1cnc2cc(C)nn2c1C	inactive: 9.5%
Cc1ccc(-c2csc3nnc(SCC(=O)Nc4nsc(-c5ccccc5)n4)n23)cc1	inactive: 7.15%
O=C1/C(=C\c2cccs2)Sc2ccc3ccccc3c21	inactive: -9.5%
COC(=O)Nc1cc([N+](=O)[O-])ccc1OC	inconclusive: -34.2%
CC1(C)CC(=O)C(CC(=O)Nc2ccc(S(N)(=O)=O)cc2)=C(O)C1	active: -89.8%
CN1CCC(OC(=O)C23CCC(C)(C(=O)O2)C3(C)C)CC1 (centres undefined)	inconclusive: -40.6%
CC(C)CCn1c(CN2CCOCC2)nc2c1c(=O)n(C)c(=O)n2C	inconclusive: -48%
COc1ccc(CC(=O)OCC(=O)Nc2c(C)n(C)n(-c3ccccc3)c2=O)cc1	inconclusive: -36.6%
O=C(CC1=NC2(CCCC2)Cc2ccccc21)N1CCOCC1	inconclusive: -60.3%
CC(C)(C)CC(=O)N1CCC(c2nc3c(nnn3Cc3c(F)cccc3Cl)c(=O)[nH]2)CC1	inactive: 29%
COc1nc(NCc2ccco2)nc(NC2CCCCC2)n1	inconclusive: -49.5%
COc1cc(C(=O)O)ccc1OC(C)=O	inconclusive: -46%
CCOC(=O)c1[nH]nc(-c2cc(CC)c(O)cc2O)c1-c1cscn1	inactive: -17.5%
COCCn1c(SCC(=O)Nc2ccc(S(N)(=O)=O)cc2)nc2ccccc21	inactive: 46%
Cn1c(=O)[nH]c(=O)c2c1nc(Sc1nc3ccccc3s1)n2Cc1ccccc1	inactive: -28.7%

3 entries picked at random from those above, as already listed:
SMILES	activity change (PNC), negative = inhibition
CN1CCC(OC(=O)C23CCC(C)(C(=O)O2)C3(C)C)CC1 (centres undefined)	inconclusive: -40.6%
O=C(CN1C(=O)NC2(CCCCC2)C1=O)NC1CCCc2ccccc21 (centres undefined)	inactive: 14.9%
CC(C)CCn1c(CN2CCOCC2)nc2c1c(=O)n(C)c(=O)n2C	inconclusive: -48%

Next structures:

SMILES	activity change (PNC), negative = inhibition
CCOc1ccc(NC(=S)NC(C)c2cccs2)cc1 (centres undefined)	inactive: 34.7%
COc1ccc(NC(=O)C2CCCN(S(=O)(=O)c3c(C)n[nH]c3C)C2)c(OC)c1 (centres undefined)	inconclusive: -36.5%
COC(=O)c1ccc(NC(=O)C2CCN(C(=O)c3cc(OC)c(OC)c(OC)c3)CC2)cc1	inconclusive: -40.7%
COC(=O)c1c(/N=C/N(C)C)sc2c1CCN(c1ncc(C(F)(F)F)cc1Cl)C2	inconclusive: -38.8%
COc1cc2cc(CN(CCCO)S(=O)(=O)c3ccccc3)c(=O)[nH]c2cc1OC	inconclusive: -64.5%
Cc1cc(N)n2ncc(-c3ccc(Cl)cc3)c2n1	inactive: 36.4%
CC1(C)CC(=O)C(C(C2=C(O)CC(C)(C)CC2=O)c2ccc([N+](=O)[O-])cc2)C(=O)C1 (centres undefined)	inconclusive: -34.7%
COc1ccc(CCNC(=O)CN(C2CCCCC2)S(C)(=O)=O)cc1OC	inconclusive: -59.5%
FC(F)Sc1ccc(-n2cc(-c3ccc(Cl)cc3)[n+]3c2CCC3)cc1	inconclusive: -37.5%
Cc1cccc(CCNC(=O)C2CCCN(S(=O)(=O)c3cccc4nsnc34)C2)c1 (centres undefined)	active: -95.2%
O=C1CC(C(=O)Nc2ccc(Cl)cc2[N+](=O)[O-])C2(CCCCC2)O1 (centres undefined)	active: -84.2%
O=[N+]([O-])c1ccc(Cl)c(/C=N/N2CCN(Cc3ccc(Cl)cc3)CC2)c1	inconclusive: -63.8%
COc1ccccc1C(=O)Nc1cc2cc(Br)ccc2oc1=O	inconclusive: -31%
Cc1[nH]c2ccccc2c1/C=N/NC(=O)c1cccc(S(=O)(=O)Nc2ccccc2Cl)c1	inactive: 9.13%
CCc1nnc(NCC(=O)N2CCc3ccccc32)s1	inconclusive: -51.1%
COc1ccc(C(=O)OCC(=O)NCc2ccc3c(c2)OCO3)cc1[N+](=O)[O-]	active: -107%
CCN1CC2CCCC3(C1)C(=O)NC1(CCCCC1)N=C23 (centres undefined)	inactive: 34.5%
CC1Cc2nc(SCC(=O)OCc3ccccc3)n(C)c(=O)c2S1 (centres undefined)	inconclusive: -46.9%
Cc1cc(C)cc(N(CC(=O)N2CCc3ccccc32)S(=O)(=O)c2c(C)noc2C)c1	inactive: -6.12%
Cc1nc2ccc(N=NC3=C(O)CC(C)(C)CC3=O)cc2s1	inactive: -6.15%
CCOCCCNC(=O)C1c2ccccc2C(=O)N2CCc3ccccc3C12 (centres undefined)	inactive: 5.38%
CN1C2C=C3C(C#N)=C(N)C(C#N)(C#N)[C@@H](c4cccs4)C3C1CC2 (some centres undefined)	inactive: 55.2%

From PubChem BioAssay AID2417 (National Center for Advancing Translational Sciences (NCATS), 2010)
